In the supplement of paper PMC8612539:
≈ marks a conversion by molar mass, not a printed value. The source gives many values for each of these; only a part stands here.

Test system: Escherichia coli
Assay: minimum inhibitory concentration (MIC)
Experimental: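 Broth microdilution MIC (Sensititre BOPO7F bovine plate, CLSI methods) of 19 antimicrobials against field isolates of P. multocida, M. haemolytica, H. somni (deep nasopharyngeal swabs) and E. coli, Enterococcus spp. (rectal swabs) from weaned dairy heifers. Incubation 16-24 h at 35 C. MIC is the lowest concentration preventing visible growth. Values with <= or > lie at the tested range limits. Trimethoprim-sulfamethoxazole is given as the trimethoprim component of a 1:19 mixture.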

CN1C[C@@H]2C[C@H]1CN2c1cc2c(cc1F)c(=O)c(C(=O)O)cn2C1CC1 [Danofloxacin]
Conditions	minimum inhibitory concentration [µg/mL]
isolate (source animal id): 1	≤ 0.12
isolate (source animal id): 2	≤ 0.12
isolate (source animal id): 3	≤ 0.12
isolate (source animal id): 4	≤ 0.12
isolate (source animal id): 5	≤ 0.12
isolate (source animal id): 6	≤ 0.12
isolate (source animal id): 7	≤ 0.12
isolate (source animal id): 17	0.25 (≈ 0.7 µM)
isolate (source animal id): 18	≤ 0.12
isolate (source animal id): 19	≤ 0.12
isolate (source animal id): 20	≤ 0.12
isolate (source animal id): 21	≤ 0.12
isolate (source animal id): 22	≤ 0.12
isolate (source animal id): 23	≤ 0.12
isolate (source animal id): 24	≤ 0.12
isolate (source animal id): 25	0.5 (≈ 1.4 µM)
isolate (source animal id): 26	≤ 0.12
isolate (source animal id): 27	0.5 (≈ 1.4 µM)
isolate (source animal id): 28	≤ 0.12
isolate (source animal id): 29	0.25 (≈ 0.7 µM)
isolate (source animal id): 30	≤ 0.12
isolate (source animal id): 31	≤ 0.12
isolate (source animal id): 32	> 1
isolate (source animal id): 33	> 1
isolate (source animal id): 34	≤ 0.12
isolate (source animal id): 35	> 1
isolate (source animal id): 36	≤ 0.12
isolate (source animal id): 37	≤ 0.12
isolate (source animal id): 38	0.25 (≈ 0.7 µM)
isolate (source animal id): 39	> 1
isolate (source animal id): 40	≤ 0.12
isolate (source animal id): 41	≤ 0.12
isolate (source animal id): 42	≤ 0.12
isolate (source animal id): 43	> 1
isolate (source animal id): 44	≤ 0.12
isolate (source animal id): 45	≤ 0.12
isolate (source animal id): 46	≤ 0.12
isolate (source animal id): 47	≤ 0.12
isolate (source animal id): 48	≤ 0.12
isolate (source animal id): 49	≤ 0.12
isolate (source animal id): 50	≤ 0.12
isolate (source animal id): 51	0.25 (≈ 0.7 µM)
isolate (source animal id): 52	≤ 0.12
isolate (source animal id): 53	≤ 0.12
isolate (source animal id): 54	≤ 0.12
isolate (source animal id): 55	≤ 0.12
isolate (source animal id): 56	≤ 0.12
isolate (source animal id): 57	> 1
isolate (source animal id): 58	≤ 0.12
isolate (source animal id): 59	0.5 (≈ 1.4 µM)
isolate (source animal id): 60	≤ 0.12
isolate (source animal id): 61	0.25 (≈ 0.7 µM)
isolate (source animal id): 62	≤ 0.12
isolate (source animal id): 63	≤ 0.12
isolate (source animal id): 64	≤ 0.12
isolate (source animal id): 65	> 1
isolate (source animal id): 66	≤ 0.12
isolate (source animal id): 67	> 1
isolate (source animal id): 68	≤ 0.12
isolate (source animal id): 69	≤ 0.12
isolate (source animal id): 70	≤ 0.12
isolate (source animal id): 71	≤ 0.12
isolate (source animal id): 72	≤ 0.12
isolate (source animal id): 73	≤ 0.12
isolate (source animal id): 74	≤ 0.12
isolate (source animal id): 75	≤ 0.12
isolate (source animal id): 76	≤ 0.12
isolate (source animal id): 77	≤ 0.12
isolate (source animal id): 78	≤ 0.12
isolate (source animal id): 79	≤ 0.12
isolate (source animal id): 80	≤ 0.12
isolate (source animal id): 81	≤ 0.12
isolate (source animal id): 82	≤ 0.12
isolate (source animal id): 83	≤ 0.12
isolate (source animal id): 84	≤ 0.12
isolate (source animal id): 85	≤ 0.12
isolate (source animal id): 86	> 1
isolate (source animal id): 87	≤ 0.12
isolate (source animal id): 88	≤ 0.12
isolate (source animal id): 89	≤ 0.12
isolate (source animal id): 90	≤ 0.12
isolate (source animal id): 91	≤ 0.12
isolate (source animal id): 92	> 1
isolate (source animal id): 93	> 1
isolate (source animal id): 94	> 1
isolate (source animal id): 95	1 (≈ 2.8 µM)
isolate (source animal id): 96	≤ 0.12
isolate (source animal id): 97	≤ 0.12
isolate (source animal id): 189	> 1
isolate (source animal id): 190	≤ 0.12
isolate (source animal id): 191	≤ 0.12
isolate (source animal id): 192	≤ 0.12
isolate (source animal id): 193	≤ 0.12
isolate (source animal id): 194	≤ 0.12
isolate (source animal id): 195	≤ 0.12
isolate (source animal id): 196	≤ 0.12
isolate (source animal id): 197	≤ 0.12
isolate (source animal id): 198	0.25 (≈ 0.7 µM)
isolate (source animal id): 199	0.5 (≈ 1.4 µM)
isolate (source animal id): 200	0.25 (≈ 0.7 µM)
isolate (source animal id): 201	≤ 0.12
isolate (source animal id): 202	≤ 0.12
isolate (source animal id): 203	≤ 0.12
isolate (source animal id): 204	≤ 0.12
isolate (source animal id): 205	≤ 0.12
isolate (source animal id): 206	≤ 0.12
isolate (source animal id): 207	≤ 0.12
isolate (source animal id): 208	≤ 0.12
isolate (source animal id): 209	≤ 0.12
isolate (source animal id): 210	≤ 0.12
isolate (source animal id): 211	≤ 0.12
isolate (source animal id): 212	0.5 (≈ 1.4 µM)
isolate (source animal id): 213	≤ 0.12
isolate (source animal id): 214	≤ 0.12
isolate (source animal id): 215	≤ 0.12
isolate (source animal id): 216	≤ 0.12
isolate (source animal id): 217	≤ 0.12
isolate (source animal id): 218	≤ 0.12
isolate (source animal id): 219	0.25 (≈ 0.7 µM)
isolate (source animal id): 220	≤ 0.12
isolate (source animal id): 221	≤ 0.12
isolate (source animal id): 222	≤ 0.12
isolate (source animal id): 223	0.5 (≈ 1.4 µM)
isolate (source animal id): 224	≤ 0.12
isolate (source animal id): 225	≤ 0.12
isolate (source animal id): 226	> 1
isolate (source animal id): 227	> 1
isolate (source animal id): 228	≤ 0.12
isolate (source animal id): 229	> 1
isolate (source animal id): 230	0.5 (≈ 1.4 µM)
isolate (source animal id): 231	0.5 (≈ 1.4 µM)
isolate (source animal id): 232	0.5 (≈ 1.4 µM)
isolate (source animal id): 233	≤ 0.12
isolate (source animal id): 234	≤ 0.12
isolate (source animal id): 235	0.5 (≈ 1.4 µM)
isolate (source animal id): 236	≤ 0.12
isolate (source animal id): 237	≤ 0.12
isolate (source animal id): 238	≤ 0.12
isolate (source animal id): 239	≤ 0.12
isolate (source animal id): 240	≤ 0.12
isolate (source animal id): 241	≤ 0.12
isolate (source animal id): 242	≤ 0.12
isolate (source animal id): 243	≤ 0.12
isolate (source animal id): 244	≤ 0.12
isolate (source animal id): 245	≤ 0.12
isolate (source animal id): 246	> 1
isolate (source animal id): 247	≤ 0.12
isolate (source animal id): 248	≤ 0.12
isolate (source animal id): 249	≤ 0.12
isolate (source animal id): 250	≤ 0.12
isolate (source animal id): 251	≤ 0.12
isolate (source animal id): 252	≤ 0.12
isolate (source animal id): 253	≤ 0.12
isolate (source animal id): 254	≤ 0.12
isolate (source animal id): 255	≤ 0.12
isolate (source animal id): 256	≤ 0.12
isolate (source animal id): 257	≤ 0.12
isolate (source animal id): 258	≤ 0.12
isolate (source animal id): 259	> 1
isolate (source animal id): 260	≤ 0.12
isolate (source animal id): 261	≤ 0.12
isolate (source animal id): 262	1 (≈ 2.8 µM)
isolate (source animal id): 263	≤ 0.12
isolate (source animal id): 264	≤ 0.12
isolate (source animal id): 265	≤ 0.12
isolate (source animal id): 266	≤ 0.12
isolate (source animal id): 267	≤ 0.12
isolate (source animal id): 268	≤ 0.12
isolate (source animal id): 269	≤ 0.12
isolate (source animal id): 270	≤ 0.12
isolate (source animal id): 271	≤ 0.12
isolate (source animal id): 272	≤ 0.12
isolate (source animal id): 273	≤ 0.12
isolate (source animal id): 274	> 1
isolate (source animal id): 275	0.25 (≈ 0.7 µM)
isolate (source animal id): 276	≤ 0.12
isolate (source animal id): 277	≤ 0.12
isolate (source animal id): 278	≤ 0.12
isolate (source animal id): 279	≤ 0.12
isolate (source animal id): 280	≤ 0.12
isolate (source animal id): 281	0.25 (≈ 0.7 µM)
isolate (source animal id): 282	≤ 0.12
isolate (source animal id): 283	≤ 0.12
isolate (source animal id): 284	≤ 0.12
isolate (source animal id): 285	≤ 0.12
isolate (source animal id): 286	≤ 0.12
isolate (source animal id): 287	≤ 0.12
isolate (source animal id): 288	≤ 0.12
isolate (source animal id): 289	≤ 0.12
isolate (source animal id): 290	≤ 0.12
isolate (source animal id): 291	≤ 0.12
isolate (source animal id): 292	≤ 0.12
isolate (source animal id): 293	≤ 0.12
isolate (source animal id): 294	≤ 0.12
isolate (source animal id): 295	0.25 (≈ 0.7 µM)
isolate (source animal id): 296	≤ 0.12
isolate (source animal id): 297	≤ 0.12
isolate (source animal id): 298	≤ 0.12
isolate (source animal id): 299	≤ 0.12
isolate (source animal id): 300	≤ 0.12
isolate (source animal id): 301	≤ 0.12
isolate (source animal id): 302	≤ 0.12
isolate (source animal id): 303	≤ 0.12
isolate (source animal id): 304	≤ 0.12
isolate (source animal id): 305	≤ 0.12
isolate (source animal id): 306	≤ 0.12
isolate (source animal id): 307	≤ 0.12
isolate (source animal id): 308	≤ 0.12
isolate (source animal id): 309	≤ 0.12
isolate (source animal id): 310	≤ 0.12
isolate (source animal id): 311	≤ 0.12
isolate (source animal id): 312	≤ 0.12
isolate (source animal id): 313	≤ 0.12
isolate (source animal id): 314	≤ 0.12
isolate (source animal id): 315	0.25 (≈ 0.7 µM)
isolate (source animal id): 316	≤ 0.12
isolate (source animal id): 317	0.5 (≈ 1.4 µM)
isolate (source animal id): 318	≤ 0.12
isolate (source animal id): 319	≤ 0.12
isolate (source animal id): 320	≤ 0.12
isolate (source animal id): 321	≤ 0.12
isolate (source animal id): 322	≤ 0.12
isolate (source animal id): 323	≤ 0.12
isolate (source animal id): 324	≤ 0.12
isolate (source animal id): 325	≤ 0.12
isolate (source animal id): 326	≤ 0.12
isolate (source animal id): 327	≤ 0.12
isolate (source animal id): 328	≤ 0.12
isolate (source animal id): 329	≤ 0.12
isolate (source animal id): 330	≤ 0.12
isolate (source animal id): 331	1 (≈ 2.8 µM)
isolate (source animal id): 332	≤ 0.12
isolate (source animal id): 333	≤ 0.12
isolate (source animal id): 334	≤ 0.12
isolate (source animal id): 335	≤ 0.12
isolate (source animal id): 336	≤ 0.12
isolate (source animal id): 337	1 (≈ 2.8 µM)
isolate (source animal id): 338	0.25 (≈ 0.7 µM)
isolate (source animal id): 339	≤ 0.12
isolate (source animal id): 340	≤ 0.12
isolate (source animal id): 341	≤ 0.12
